Data taken from publication PMC4226561.
These are yes or no findings as the source states them, for the method shown. Some results given as binding are weak or reduced against the parent protein; the word gives no strength. Tags and fused reporters may be left off the sequences shown.

T1: KOR1N, N-terminal part of KOR1 with the transmembrane domain (AA 1 to 94), MbYTH fusion (Arabidopsis thaliana) (UniProt Q38890)
T1 sequence: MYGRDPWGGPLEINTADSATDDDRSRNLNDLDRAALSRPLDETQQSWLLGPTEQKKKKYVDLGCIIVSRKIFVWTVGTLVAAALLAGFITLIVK

T2: CESA3 (cellulose synthase, primary cell wall), MbYTH fusion (Arabidopsis thaliana) (UniProt Q941L0)
T2 sequence: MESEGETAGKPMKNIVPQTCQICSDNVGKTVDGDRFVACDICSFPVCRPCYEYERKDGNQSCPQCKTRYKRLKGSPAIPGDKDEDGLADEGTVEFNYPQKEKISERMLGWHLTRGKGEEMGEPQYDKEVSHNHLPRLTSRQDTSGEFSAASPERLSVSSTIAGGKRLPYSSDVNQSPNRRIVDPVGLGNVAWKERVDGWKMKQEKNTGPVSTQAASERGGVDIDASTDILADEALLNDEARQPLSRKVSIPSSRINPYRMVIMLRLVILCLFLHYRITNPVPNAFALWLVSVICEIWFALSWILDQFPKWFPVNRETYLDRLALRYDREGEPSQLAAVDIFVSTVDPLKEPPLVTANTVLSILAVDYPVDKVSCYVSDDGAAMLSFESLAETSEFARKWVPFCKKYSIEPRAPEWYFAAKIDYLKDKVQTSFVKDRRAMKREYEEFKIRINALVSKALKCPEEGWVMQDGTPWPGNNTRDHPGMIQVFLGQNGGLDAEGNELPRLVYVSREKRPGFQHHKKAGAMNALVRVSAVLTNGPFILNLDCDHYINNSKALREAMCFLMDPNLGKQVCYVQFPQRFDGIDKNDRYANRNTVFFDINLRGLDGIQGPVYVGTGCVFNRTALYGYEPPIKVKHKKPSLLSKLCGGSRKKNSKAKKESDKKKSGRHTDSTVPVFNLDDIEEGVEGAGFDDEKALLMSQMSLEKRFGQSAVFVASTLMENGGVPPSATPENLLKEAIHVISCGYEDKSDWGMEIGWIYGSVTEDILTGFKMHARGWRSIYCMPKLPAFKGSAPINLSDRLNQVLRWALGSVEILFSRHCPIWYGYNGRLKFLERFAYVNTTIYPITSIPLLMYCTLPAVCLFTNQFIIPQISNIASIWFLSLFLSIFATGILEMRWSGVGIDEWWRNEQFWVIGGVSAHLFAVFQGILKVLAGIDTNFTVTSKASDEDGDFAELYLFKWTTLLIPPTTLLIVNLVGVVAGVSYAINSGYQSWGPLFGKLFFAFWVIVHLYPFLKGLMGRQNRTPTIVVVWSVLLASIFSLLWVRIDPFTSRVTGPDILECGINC

T3: CESA8 (cellulose synthase, secondary cell wall), MbYTH fusion (Arabidopsis thaliana) (UniProt Q8LPK5)
T3 sequence: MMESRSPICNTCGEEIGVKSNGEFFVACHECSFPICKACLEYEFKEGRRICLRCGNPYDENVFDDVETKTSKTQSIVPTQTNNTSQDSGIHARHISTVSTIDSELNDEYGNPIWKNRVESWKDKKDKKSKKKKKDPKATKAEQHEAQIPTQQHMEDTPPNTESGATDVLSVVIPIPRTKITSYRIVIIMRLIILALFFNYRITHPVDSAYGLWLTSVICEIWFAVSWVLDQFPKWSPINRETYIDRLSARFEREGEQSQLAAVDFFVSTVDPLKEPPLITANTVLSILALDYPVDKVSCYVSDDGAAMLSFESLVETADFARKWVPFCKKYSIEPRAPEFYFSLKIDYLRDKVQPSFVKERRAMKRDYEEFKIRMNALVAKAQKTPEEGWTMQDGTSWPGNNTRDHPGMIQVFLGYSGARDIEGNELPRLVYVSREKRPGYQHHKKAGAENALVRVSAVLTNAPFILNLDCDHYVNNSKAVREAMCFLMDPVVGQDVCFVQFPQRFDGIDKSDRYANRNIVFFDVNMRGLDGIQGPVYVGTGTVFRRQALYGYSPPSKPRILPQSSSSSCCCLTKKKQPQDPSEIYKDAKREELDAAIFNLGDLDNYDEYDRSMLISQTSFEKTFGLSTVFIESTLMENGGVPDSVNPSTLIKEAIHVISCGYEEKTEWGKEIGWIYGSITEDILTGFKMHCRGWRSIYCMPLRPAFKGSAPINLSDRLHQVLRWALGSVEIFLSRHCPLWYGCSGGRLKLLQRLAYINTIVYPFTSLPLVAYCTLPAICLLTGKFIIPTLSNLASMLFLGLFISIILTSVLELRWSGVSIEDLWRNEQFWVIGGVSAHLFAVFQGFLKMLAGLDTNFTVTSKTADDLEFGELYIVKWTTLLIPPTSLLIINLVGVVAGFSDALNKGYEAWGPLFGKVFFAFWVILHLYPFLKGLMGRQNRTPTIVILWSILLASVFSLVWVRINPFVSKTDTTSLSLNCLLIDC

B1: KOR1N, N-terminal part of KOR1 with the transmembrane domain (AA 1 to 94), MbYTH fusion (domain or fragment, UniProt Q38890 1-94)
chain: T1 sequence
B2: KOR1NOTMD, KOR1 without the transmembrane domain (AA 1 to 69+95 to 621), MbYTH prey (domain or fragment, UniProt Q38890)
chain: MYGRDPWGGPLEINTADSATDDDRSRNLNDLDRAALSRPLDETQQSWLLGPTEQKKKKYVDLGCIIVSRTVPRHHPKTPPPDNYTIALHKALKFFNAQKSGKLPKHNNVSWRGNSGLQDGKGETGSFYKDLVGGYYDAGDAIKFNFPMAYAMTMLSWSVIEYSAKYEAAGELTHVKELIKWGTDYFLKTFNSTADSIDDLVSQVGSGNTDDGNTDPNDHYCWMRPEDMDYKRPVTTCNGGCSDLAAEMAAALASASIVFKDNKEYSKKLVHGAKVVYQFGRTRRGRYSAGTAESSKFYNSSMYWDEFIWGGAWMYYATGNVTYLNLITQPTMAKHAGAFWGGPYYGVFSWDNKLAGAQLLLSRLRLFLSPGYPYEEILRTFHNQTSIVMCSYLPIFNKFNRTNGGLIELNHGAPQPLQYSVNAAFLATLYSDYLDAADTPGWYCGPNFYSTSVLRDFARSQIDYILGKNPRKMSYVVGFGTKYPRHVHHRGASIPKNKVKYNCKGGWKWRDSKKPNPNTIEGAMVAGPDKRDGYRDVRMNYNYTEPTLAGNAGLVAALVALSGEEEATGKIDKNTIFSAVPPLFPTPPPPPAPWKP
B3: KORRIGAN1 (KOR1), complete protein (AA 1 to 621), MbYTH fusion (protein, UniProt Q38890 1-621)
chain: MYGRDPWGGPLEINTADSATDDDRSRNLNDLDRAALSRPLDETQQSWLLGPTEQKKKKYVDLGCIIVSRKIFVWTVGTLVAAALLAGFITLIVKTVPRHHPKTPPPDNYTIALHKALKFFNAQKSGKLPKHNNVSWRGNSGLQDGKGETGSFYKDLVGGYYDAGDAIKFNFPMAYAMTMLSWSVIEYSAKYEAAGELTHVKELIKWGTDYFLKTFNSTADSIDDLVSQVGSGNTDDGNTDPNDHYCWMRPEDMDYKRPVTTCNGGCSDLAAEMAAALASASIVFKDNKEYSKKLVHGAKVVYQFGRTRRGRYSAGTAESSKFYNSSMYWDEFIWGGAWMYYATGNVTYLNLITQPTMAKHAGAFWGGPYYGVFSWDNKLAGAQLLLSRLRLFLSPGYPYEEILRTFHNQTSIVMCSYLPIFNKFNRTNGGLIELNHGAPQPLQYSVNAAFLATLYSDYLDAADTPGWYCGPNFYSTSVLRDFARSQIDYILGKNPRKMSYVVGFGTKYPRHVHHRGASIPKNKVKYNCKGGWKWRDSKKPNPNTIEGAMVAGPDKRDGYRDVRMNYNYTEPTLAGNAGLVAALVALSGEEEATGKIDKNTIFSAVPPLFPTPPPPPAPWKP
B4: KOR1C, transmembrane domain plus the C-terminal part of KOR1 (AA 70 to 621), MbYTH fusion (domain or fragment, UniProt Q38890 70-621)
chain: KIFVWTVGTLVAAALLAGFITLIVKTVPRHHPKTPPPDNYTIALHKALKFFNAQKSGKLPKHNNVSWRGNSGLQDGKGETGSFYKDLVGGYYDAGDAIKFNFPMAYAMTMLSWSVIEYSAKYEAAGELTHVKELIKWGTDYFLKTFNSTADSIDDLVSQVGSGNTDDGNTDPNDHYCWMRPEDMDYKRPVTTCNGGCSDLAAEMAAALASASIVFKDNKEYSKKLVHGAKVVYQFGRTRRGRYSAGTAESSKFYNSSMYWDEFIWGGAWMYYATGNVTYLNLITQPTMAKHAGAFWGGPYYGVFSWDNKLAGAQLLLSRLRLFLSPGYPYEEILRTFHNQTSIVMCSYLPIFNKFNRTNGGLIELNHGAPQPLQYSVNAAFLATLYSDYLDAADTPGWYCGPNFYSTSVLRDFARSQIDYILGKNPRKMSYVVGFGTKYPRHVHHRGASIPKNKVKYNCKGGWKWRDSKKPNPNTIEGAMVAGPDKRDGYRDVRMNYNYTEPTLAGNAGLVAALVALSGEEEATGKIDKNTIFSAVPPLFPTPPPPPAPWKP

Each binder was assayed against T1, KOR1N, N-terminal part of KOR1 with the transmembrane domain (AA 1 to 94), MbYTH fusion (Arabidopsis thaliana) (assay: two-hybrid; split-ubiquitin membrane-based yeast two-hybrid (MbYTH) in S. cerevisiae NMY51; bait fused to Cub-TF, prey to NubG; 100 colonies of each combination spotted on selective medium with 3-AT, 30°C, three days, grown spots counted; called 'in vitro' by the paper).

B1 was tested. Which binding did it give?
Its binding is “binds”.

KIFVWTVGTLVAAALLAGFITLIVK (domain or fragment, UniProt Q38890 70-94) [KOR1TMD, only the transmembrane domain of KOR1 (AA 70 to 94), MbYTH fusion] was tested. Which binding did it give?
Its binding is “binds”.

B2 was tested. Which binding did it give?
The binding was “no binding”.

Each binder was assayed against T2, CESA3 (cellulose synthase, primary cell wall), MbYTH fusion (Arabidopsis thaliana) in the same assay as above.

For B3, which binding is on record?
Its binding is “binds”.

With B1 as the binder, how does the binding read?
Its binding is “binds”.

With B4 as the binder, how does the binding read?
Its binding is “binds”.

KIFVWTVGTLVAAALLAGFITLIVK (domain or fragment, UniProt Q38890 70-94) [KOR1TMD, only the transmembrane domain of KOR1 (AA 70 to 94), MbYTH fusion] was tested. Which binding did it give?
The binding was “binds”.

B2 was tested. Which binding did it give?
The binding was “no binding”.

What follows are binders tested against T3, CESA8 (cellulose synthase, secondary cell wall), MbYTH fusion (Arabidopsis thaliana) in the same assay as above.

For B3, which binding is on record?
The binding was “binds”.

B1 was tested. Which binding did it give?
The binding was “binds”.

With B4 as the binder, how does the binding read?
The binding was “binds”.

How did the binding turn out when KIFVWTVGTLVAAALLAGFITLIVK (domain or fragment, UniProt Q38890 70-94) [KOR1TMD, only the transmembrane domain of KOR1 (AA 70 to 94), MbYTH fusion] was run?
Its binding is “binds”.

With B2 as the binder, how does the binding read?
Its binding is “no binding”.
